Test results: PMC5629210
These are yes or no findings as the source states them, for the method shown. In cells and extracts the contact can be indirect. Some entries that bind do so weakly or less than the wild type.

Amino acid sequences for entries named in this document (tags omitted). A change or cut given only in a name is not applied to a line headed by its entry. Chains listed by the source or under a name are the forms on record and can include a tag or linker.
UniProt Q7Z6B7: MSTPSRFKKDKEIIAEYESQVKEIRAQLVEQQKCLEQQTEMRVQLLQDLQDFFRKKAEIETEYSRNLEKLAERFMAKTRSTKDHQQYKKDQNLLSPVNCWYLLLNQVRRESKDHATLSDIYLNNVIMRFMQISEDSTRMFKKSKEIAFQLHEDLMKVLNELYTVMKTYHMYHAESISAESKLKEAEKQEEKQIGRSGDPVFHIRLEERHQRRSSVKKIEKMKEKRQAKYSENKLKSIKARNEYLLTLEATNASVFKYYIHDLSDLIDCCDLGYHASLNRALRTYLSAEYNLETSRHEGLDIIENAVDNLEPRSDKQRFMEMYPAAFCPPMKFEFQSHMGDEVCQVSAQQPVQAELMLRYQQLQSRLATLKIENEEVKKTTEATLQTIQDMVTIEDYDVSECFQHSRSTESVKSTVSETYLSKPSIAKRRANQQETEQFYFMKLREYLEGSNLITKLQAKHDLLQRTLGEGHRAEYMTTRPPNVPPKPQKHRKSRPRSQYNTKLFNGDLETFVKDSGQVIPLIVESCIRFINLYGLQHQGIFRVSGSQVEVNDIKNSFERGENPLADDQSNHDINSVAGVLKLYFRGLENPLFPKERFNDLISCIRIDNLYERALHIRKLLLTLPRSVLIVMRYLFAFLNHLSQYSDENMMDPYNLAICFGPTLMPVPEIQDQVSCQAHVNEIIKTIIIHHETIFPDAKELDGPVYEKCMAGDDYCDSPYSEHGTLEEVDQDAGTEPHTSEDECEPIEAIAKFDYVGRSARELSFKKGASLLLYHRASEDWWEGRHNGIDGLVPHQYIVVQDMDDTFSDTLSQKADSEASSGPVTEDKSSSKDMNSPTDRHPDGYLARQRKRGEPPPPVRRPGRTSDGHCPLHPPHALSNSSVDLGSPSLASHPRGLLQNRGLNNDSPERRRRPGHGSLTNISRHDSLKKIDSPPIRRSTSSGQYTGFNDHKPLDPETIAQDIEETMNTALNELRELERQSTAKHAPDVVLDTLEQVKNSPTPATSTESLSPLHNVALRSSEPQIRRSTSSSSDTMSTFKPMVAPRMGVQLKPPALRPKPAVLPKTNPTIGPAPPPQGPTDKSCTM
UniProt Q14247: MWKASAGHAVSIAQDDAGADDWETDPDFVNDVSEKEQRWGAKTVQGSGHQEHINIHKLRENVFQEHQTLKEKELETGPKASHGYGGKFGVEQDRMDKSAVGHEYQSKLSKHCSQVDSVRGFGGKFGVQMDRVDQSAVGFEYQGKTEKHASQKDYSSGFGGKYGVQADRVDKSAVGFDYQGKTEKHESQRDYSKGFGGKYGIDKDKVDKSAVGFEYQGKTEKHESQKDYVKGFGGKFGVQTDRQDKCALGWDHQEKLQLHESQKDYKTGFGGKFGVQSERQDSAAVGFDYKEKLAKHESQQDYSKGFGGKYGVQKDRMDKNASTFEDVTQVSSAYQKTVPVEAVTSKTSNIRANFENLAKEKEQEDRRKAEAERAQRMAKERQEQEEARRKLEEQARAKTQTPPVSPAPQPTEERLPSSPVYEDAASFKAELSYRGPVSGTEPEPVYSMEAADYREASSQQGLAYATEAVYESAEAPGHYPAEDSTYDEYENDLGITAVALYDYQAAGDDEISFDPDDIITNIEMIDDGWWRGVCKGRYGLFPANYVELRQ
3YF cortactin-mCherry (Q14247, form named): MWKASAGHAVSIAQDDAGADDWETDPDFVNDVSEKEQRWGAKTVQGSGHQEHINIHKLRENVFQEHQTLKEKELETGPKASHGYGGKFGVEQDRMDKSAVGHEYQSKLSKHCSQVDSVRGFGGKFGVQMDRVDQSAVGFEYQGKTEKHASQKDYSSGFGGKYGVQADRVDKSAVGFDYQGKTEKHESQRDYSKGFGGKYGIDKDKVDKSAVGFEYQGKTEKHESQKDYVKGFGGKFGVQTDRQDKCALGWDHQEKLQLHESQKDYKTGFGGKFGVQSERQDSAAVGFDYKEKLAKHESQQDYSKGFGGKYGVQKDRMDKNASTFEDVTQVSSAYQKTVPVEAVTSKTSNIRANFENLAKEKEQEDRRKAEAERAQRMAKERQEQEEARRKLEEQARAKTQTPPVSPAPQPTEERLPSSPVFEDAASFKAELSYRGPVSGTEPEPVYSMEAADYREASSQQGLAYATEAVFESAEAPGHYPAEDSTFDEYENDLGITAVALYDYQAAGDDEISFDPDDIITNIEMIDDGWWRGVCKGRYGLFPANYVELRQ

Experiments:
[1] = target: SRGAP1-GFP (SLIT-ROBO Rho GTPase activating protein 1 fused to GFP) (human) (UniProt Q7Z6B7); assay: co-IP; GFP-trap of HEK293T cells co-transfected with SRGAP1-GFP and WT/3YF/3YD cortactin-mCherry; blots with anti-GFP and anti-mCherry antibodies
[2] = target: cortactin-GFP (untreated) (human) (UniProt Q14247); assay: pull-down; cortactin-GFP affinity-isolated on GFP-trap beads from HEK293T cells (untreated, lambda phosphatase-treated, or from cells co-transfected with Src Y527F), beads incubated with lysates of cortactin-siRNA Caco-2 cells; SRGAP1 detected by blot; only the target purified

| binding [1] | binding [2] | Substance |
| --- | --- | --- |
| binds |  | 3YF cortactin-mCherry (from UniProt Q14247 1-550) |
|  | binds | SRGAP1 (endogenous, Caco-2) (from UniProt Q7Z6B7 1-1085) |
| binds |  | WT cortactin-mCherry (from UniProt Q14247 1-550) |
